Measured values reported in PubChem BioAssay AID1347076 (National Center for Advancing Translational Sciences (NCATS), 2019).
The whole screen tested about 400,000 compounds, of which about 13,000 (3.2%) were called active. The shares of active, inactive and inconclusive entries below differ from those in the screen. Calls come from the whole dose curve; as a rule, active = well fitted cell-killing curve with a large enough effect; inconclusive = small, poorly fitted or top-dose-only effect, or effect the other way; inactive = flat fitted curve, though single readings scatter. A potency beside an inconclusive call is a rough fit, not a confirmed value.
% is set by controls: 0 for no effect and ±100 for the full control effect; potency is the fitted concentration of half-maximal effect.

Assay: qHTS assay for MDR1-selective chemotherapeutics: Primary screen using the drug-selected MDR subline cells KB-V1; note: nearly all actives have a fitted effect of over 60% in size
Conditions: KB-V1 MDR cells viability, CellTiter-Glo, 72 h; activity change, negative = cytotoxicity: at 46.1 µM (top of the series)
How it was run: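 Compound-treated KB-V1 multidrug-resistant cells, 72 h, 37 degrees C; viability by CellTiter-Glo. Fitted qHTS curves give the values.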
With `CCc1cccc(CC)c1NC(=O)CCCSc1nc2ccccc2s1` the Potency was active: 11.6 µM. With `CN(C)CC(CCC(CN(C)C)C(=O)c1ccccc1)C(=O)c1ccccc1` (stereo not drawn) the Potency was active: 8.2 µM. With `CCOC(=O)c1noc2nc(C)n(CC(=O)Nc3cccc(OC)c3)c(=O)c12` the Potency was inconclusive: 0.146 µM [rising, full curve]. In the case of `O=c1cc(CSc2nnc(-c3cccs3)n2Cc2ccccc2)nc2sc3ccccc3n12`, the Potency is reported as inconclusive: 1.64 µM [cytotoxic, full curve, poor fit]. With `Cc1cccc(CSc2nnc(CCNC(=O)OC(C)(C)C)o2)c1` the Potency was inconclusive: 20.6 µM [cytotoxic, single point]. In the case of `NC(CCc1ccccc1)c1csc(NC(=O)Nc2ccccc2Oc2ccccc2)n1` (stereo not drawn), the Potency is reported as active: 23.1 µM. In the case of `C/C(=N\Nc1cc(C)nc(-c2ccccc2O)n1)c1ccccc1O`, the Potency is reported as inconclusive: 29.1 µM [cytotoxic, single point]. In the case of `CN(C)C(=O)c1ccc(NC(=O)c2cccc(S(=O)(=O)N3CCCc4ccccc43)c2)cc1`, the Potency is reported as inconclusive: 32.6 µM [cytotoxic, single point]. For `CCN1CCN(C(=O)C2CCCN(S(=O)(=O)c3cc(Cl)ccc3Cl)C2)CC1` (stereo not drawn), the activity change, negative = cytotoxicity was inconclusive: -38.6% [cytotoxic]. With `O=C(Cc1ccc(O)cc1)N/N=C/c1cccnc1` the “activity change, negative = cytotoxicity” value was inactive: 0%. In the case of `O=C1CC(=O)N(c2cccc(F)c2)N1`, the Potency is reported as inconclusive: 23.1 µM [rising, single point]. With `C/C=C/Cn1c(SCc2ccccc2)nc2c1c(=O)[nH]c(=O)n2C` the Potency was active: 2.91 µM. With `O=C(/C=C/c1ccco1)Nc1cccc2cccnc12` the Potency was inconclusive: 29.1 µM [cytotoxic, single point]. For `Nc1nnc(CC(=O)N/N=C\c2ccc(-c3cccc(Cl)c3)o2)s1`, the Potency was inconclusive: 20.6 µM [rising, single point]. With `O=C(/C(=C\c1ccccc1)c1nc2ccccc2[nH]1)c1ccc(Cl)cc1` the Potency was inconclusive: 20.6 µM [cytotoxic, single point]. For `O=C(CN1CCN(C(=O)c2cncn2-c2ccccc2)CC1)Nc1ccccc1Cl`, the Potency was inconclusive: 16.4 µM [cytotoxic, partial curve]. In the case of `CCCNC(=O)C1(C)CCCN(Cc2ccc(Oc3ccccc3)cc2)C1` (stereo not drawn), the Potency is reported as inconclusive: 10.3 µM [cytotoxic, partial curve]. For `Cc1nc(-c2ccc(S(=O)(=O)Nc3ccc(Cl)c(C(F)(F)F)c3)cc2)co1`, the Potency was inconclusive: 0.146 µM [cytotoxic, full curve]. In the case of `COc1ccc([C@H]2CN(c3ccccc3)C(=O)[C@@H]2CC(=O)Nc2ccccc2)cc1`, the Potency is reported as inconclusive: 9.2 µM [cytotoxic, partial curve, poor fit]. In the case of `COc1ccccc1CN1CN(S(=O)(=O)c2ccccc2)c2nc3ccccc3nc21`, the Potency is reported as inconclusive: 4.11 µM [cytotoxic, full curve]. In the case of `COc1cc(C(=O)NCCC(=O)NCCN2CCOCC2)cc(OC)c1OC`, the Potency is reported as inconclusive: 10 µM [rising, partial curve]. For `Cc1ccc(CNC(=O)CC2C(=O)Nc3c2c(=O)n(C)c(=O)n3Cc2ccccc2)cc1` (stereo not drawn), the Potency was inconclusive: 29.1 µM [cytotoxic, single point]. In the case of `CCOC(=O)c1cnc2ccc(C)cc2c1Sc1ccccc1`, the Potency is reported as inconclusive: 20.6 µM [cytotoxic, partial curve, poor fit]. In the case of `Cc1ccc(CONC(=O)c2cccc(C)c2)cc1`, the “activity change, negative = cytotoxicity” value is reported as inactive: 15.9%. For `CC(C)CN(CCNC(=O)c1cc(-c2cccs2)nc2ccccc12)CC(C)C`, the “activity change, negative = cytotoxicity” value was inactive: -20.3%. In the case of `COc1ccc(C(=O)C(=O)N2CCC(Cc3ccccc3)CC2)cc1OC`, the Potency is reported as inconclusive: 10.3 µM [cytotoxic, partial curve]. For `CCN1CCSc2ccc(C(=O)NCc3ccccc3C)cc21`, the activity change, negative = cytotoxicity was inconclusive: 19.6%. With `COc1ccc(S(=O)(=O)N2CCN(Cc3cccc([N+](=O)[O-])c3)CC2)cc1` the Potency was inconclusive: 29.1 µM [cytotoxic, single point]. In the case of `C/C(=N\NC(=O)c1nc2ccccn2c1C)c1ccco1`, the Potency is reported as inconclusive: 29.1 µM [cytotoxic, single point]. With `Cc1ccc(NC(=O)c2cccc(S(=O)(=O)N3CCN(c4ccccc4)CC3)c2)nc1` the Potency was inconclusive: 5.8 µM [cytotoxic, full curve]. For `CCC(C)(C)n1nnnc1C(c1cc2cc(C)cc(C)c2[nH]c1=O)N1CCN(Cc2ccc3c(c2)OCO3)CC1` (stereo not drawn), the Potency was inconclusive: 6.51 µM [cytotoxic, partial curve]. In the case of `CCCCNC(=O)C1c2ccccc2OCC(=O)N1CCCN1CCOCC1` (stereo not drawn), the Potency is reported as inconclusive: 29.1 µM [rising, single point]. For `COc1cc(NC(=O)CN2Cc3ccccc3C2=O)cc(OC)c1OC`, the “activity change, negative = cytotoxicity” value was inactive: -2.17%. For `CC1CCCCN1S(=O)(=O)c1ccc(NC(=O)c2cccs2)cc1` (stereo not drawn), the Potency was inconclusive: 13 µM [cytotoxic, partial curve]. In the case of `O=C(COC(=O)c1ccccc1F)NC1CCCC1`, the Potency is reported as inconclusive: 25.9 µM [rising, partial curve, poor fit]. In the case of `COc1cc(-c2c(C#N)c(N)nc3[nH]c(=S)[nH]c(=O)c23)ccc1O`, the Potency is reported as inconclusive: 23.1 µM [cytotoxic, single point]. In the case of `N[C@@H](CO)c1nnc([C@H](CCC(=O)O)NC(=O)C2CCNCC2)o1`, the Potency is reported as inconclusive: 20.6 µM [rising, single point]. In the case of `O=C(NCC(c1ccc(F)cc1)N1CCOCC1)c1ccc([N+](=O)[O-])o1` (stereo not drawn), the Potency is reported as inconclusive: 23.1 µM [cytotoxic, single point]. For `COc1ccc(C2C(C(=O)c3ccco3)=C(O)C(=O)N2CC2CCCO2)cc1` (stereo not drawn), the Potency was inconclusive: 29.1 µM [rising, single point]. With `C[N+]1(CC(=O)c2cccs2)CCOCC1` the Potency was inconclusive: 32.6 µM [rising, single point]. For `Cc1ccc2c(c1)c1nc3ccccc3nc1n2CCN1CCOCC1`, the Potency was active: 20.6 µM. For `N#CCCn1nc(-c2ccccc2)cc1Nc1ccccc1NC(=O)C(F)(F)F`, the Potency was active: 20.6 µM. In the case of `CC(C)c1cc(C(C)C)c(S(=O)(=O)NNC(=O)c2ccncc2)c(C(C)C)c1`, the Potency is reported as active: 14.6 µM.
